Source: patent US20020115723A1, “Cysteine derivatives” (AJINOMOTO CO., INC., priority 1998, published 2002)
Some of these results come from one statement about several compounds together.

Tested on: NF-κB
Assay: Test on the function of inhibiting the activation of NF-κB induced by ultraviolet rays (gel shift assay)
Format: cell-based, human
Settings: summary of Tables 2a and 2b
Method: Test on the Function of Inhibiting the Activation of NF-κB Induced by Ultraviolet Rays.
After 18 hours had elapsed, the culture medium was substituted by a phenol red-free medium. The cells were exposed to ultraviolet rays (UVB: 50 mJ/cm^2) from an ultraviolet irradiator “Dermaray M-DMR-80” (ex Toshiba Medical Supply Co., Ltd.). After 4 to 5 hours had elapsed, the cells were collected, and the nucleoprotein was extracted therefrom in a manner known per se in the art. From the resulting nucleoprotein, the activated NF-κB was detected in accordance with the gel shift assay. The amount of the NF-κB was determined by measuring the radioactive value of the NF-κB band with the use of a bioimaging analyzer “BAS 2000” (ex Fuji Film Co., Ltd.).
The inhibition ratio of the activation of the NF-κB of the test compounds was calculated from the below-described formula (1).
Inhibition ratio of NF-κB activation (%)={1−(A1-A3)/(A2-A3)}×100 (1)
A1: radioactive value of the NF-κB upon addition of a test compound
A2: radioactive value of NF-κB when a test compound is not added
A3: radioactive value of NF-κB when a test compound is not added and is not exposed to ultraviolet rays.

SMILES: CC(=O)N[C@@H](CSSC[C@H](NC(C)=O)C(=O)O)C(=O)O [N,N′ -diacetyl-L-cystine, N,N′-diacetyl-L-cystine, reference compound]
- concentration at which the suppressing / inhibiting function on NF-κB activation is exhibited: not less than 1 mM
